Record: PubChem BioAssay AID504804 (Drosophila RNAi Screening Center, 2011)
The screen tested about 19,000 reagents; this is a random part of those with a known target gene and a result. Of all reagents, 47 (0.25%) were called active. 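Signals are raw, not normalised; exact z-scores behind calls not deposited; actives needed confirmation, so some wells reaching 2 SD are inactive.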

Purpose: 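dsRNAs that improve Kc cell survival under doxorubicin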 (primary screen)
Cells: Drosophila Kc cells
Reagents: long dsRNA against Drosophila genes, 0.5 µg dsRNA per well
Time to read-out: 96 h (48 h knock-down, then 48 h drug)
Challenge: doxorubicin 5 µg/ml for 48 h, added 48 h after dsRNA
Measurement: 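Luminescent ATP counts per replicate, not normalised, reflecting viable cells after 48 h dsRNA knock-down followed by 48 h of 5 µg/ml doxorubicin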
Direction: raw ATP luminescence: higher = more viable cells, protection from doxorubicin
Rule for the call: 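z-score of 2 or more over plate mean in both duplicates, retained only when retests and separate dsRNAs confirm the protection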

Against Gclm (GeneID 248194) [DRSC15677], the entry reads raw ATP luminescence, replicate 1 = 35507; raw ATP luminescence, replicate 2 = 38330; inactive.
For Pask (GeneID 37824) [DRSC04337], the values are raw ATP luminescence, replicate 1 = 77673; raw ATP luminescence, replicate 2 = 74513; inactive.
Silencing of Pfrx (GeneID 32938) [DRSC18856] resulted in: raw ATP luminescence, replicate 1 = 2.85e5; raw ATP luminescence, replicate 2 = 3.06e5; inactive.
After knock-down of Pfrx (GeneID 32938) [DRSC19315] the results were raw ATP luminescence, replicate 1 = 2.13e5; raw ATP luminescence, replicate 2 = 2.41e5; inactive.
For flap (GeneID 37519) [DRSC03918], the entry reads raw ATP luminescence, replicate 1 = 82080; raw ATP luminescence, replicate 2 = 56873; inactive.
Against flap (GeneID 37519) [DRSC04087], the values are raw ATP luminescence, replicate 1 = 64563; raw ATP luminescence, replicate 2 = 67347; inactive.
CG34197 (retired record) (GeneID 5740455) [DRSC05791] showed raw ATP luminescence, replicate 1 = 1.20e5; raw ATP luminescence, replicate 2 = 74637; inactive.
CG6689 (GeneID 41345) [DRSC16095] gave raw ATP luminescence, replicate 1 = 37220; raw ATP luminescence, replicate 2 = 22673; inactive.
Depletion of CG10165 (GeneID 35242) [DRSC02017] came out at: raw ATP luminescence, replicate 1 = 90483; raw ATP luminescence, replicate 2 = 47670; inactive.
For Setx (GeneID 38904) [DRSC10859] the deposit lists raw ATP luminescence, replicate 1 = 71860; raw ATP luminescence, replicate 2 = 84517; inactive.
After knock-down of slbo (GeneID 37889) [DRSC04716], the record shows raw ATP luminescence, replicate 1 = 44717; raw ATP luminescence, replicate 2 = 81293; inactive.
Silencing of Seipin (GeneID 31245) [DRSC18654] gave: raw ATP luminescence, replicate 1 = 50500; raw ATP luminescence, replicate 2 = 67510; inactive.
After knock-down of angel (GeneID 37748) [DRSC04670], the record shows raw ATP luminescence, replicate 1 = 84140; raw ATP luminescence, replicate 2 = 62873; inactive.
CG3829 (GeneID 38000) [DRSC04423] scored raw ATP luminescence, replicate 1 = 51880; raw ATP luminescence, replicate 2 = 77037; inactive.
Def (GeneID 36047) [DRSC07398] showed raw ATP luminescence, replicate 1 = 60867; raw ATP luminescence, replicate 2 = 87577; inactive.
Depletion of Pyroxd1 (GeneID 35296) [DRSC02098] came out at: raw ATP luminescence, replicate 1 = 58967; raw ATP luminescence, replicate 2 = 74450; inactive.
Depletion of bif (GeneID 32119) [DRSC18901] resulted in: raw ATP luminescence, replicate 1 = 1.64e5; raw ATP luminescence, replicate 2 = 1.67e5; inactive.
stc (GeneID 34888) [DRSC03620] showed raw ATP luminescence, replicate 1 = 76157; raw ATP luminescence, replicate 2 = 58880; inactive.
fz3 (GeneID 31023) [DRSC18779] gave raw ATP luminescence, replicate 1 = 47540; raw ATP luminescence, replicate 2 = 55690; inactive.
Against CG4611 (GeneID 38601) [DRSC10434], the entry reads raw ATP luminescence, replicate 1 = 89697; raw ATP luminescence, replicate 2 = 99063; inactive.
For CG8173 (GeneID 32753) [DRSC20088], the entry reads raw ATP luminescence, replicate 1 = 3.01e5; raw ATP luminescence, replicate 2 = 3.04e5; inactive.
For unc-13 (GeneID 43841) [DRSC17192], the entry reads raw ATP luminescence, replicate 1 = 2.48e5; raw ATP luminescence, replicate 2 = 2.40e5; inactive.
For unc-13 (GeneID 43841) [DRSC17193], the entry reads raw ATP luminescence, replicate 1 = 2.36e5; raw ATP luminescence, replicate 2 = 2.22e5; inactive.
For CG7655 (GeneID 42128) [DRSC16275] the deposit lists raw ATP luminescence, replicate 1 = 30910; raw ATP luminescence, replicate 2 = 39487; inactive.
Knock-down of Ndc1 (GeneID 42825) [DRSC15895] gave: raw ATP luminescence, replicate 1 = 40070; raw ATP luminescence, replicate 2 = 36437; inactive.
Knock-down of CG33914 (GeneID 3772464) [DRSC05033] came out at: raw ATP luminescence, replicate 1 = 92467; raw ATP luminescence, replicate 2 = 93837; inactive.
CG31262 (GeneID 318649) [DRSC13216] scored raw ATP luminescence, replicate 1 = 3.13e5; raw ATP luminescence, replicate 2 = 3.36e5; inactive.
After knock-down of CG9184 (GeneID 38152) [DRSC08636], the screen gave raw ATP luminescence, replicate 1 = 2.28e5; raw ATP luminescence, replicate 2 = 2.63e5; inactive.

Reformatted: entries from further up.
CG7655 (GeneID 42128) [DRSC16275]
- raw ATP luminescence, replicate 1: 30910
- raw ATP luminescence, replicate 2: 39487
- Call: inactive

Ndc1 (GeneID 42825) [DRSC15895]
- raw ATP luminescence, replicate 1: 40070
- raw ATP luminescence, replicate 2: 36437
- Call: inactive
